Each structure is given as a SMILES string. The list shows a part of the results. Single values are uncertain, as repeats are few or missing.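 Imaging used 1,536-well plates; nuclei positive for cleaved PARP by antibody were divided by total DNA-stained nuclei to yield the apoptosis fraction. Doses for screening kept most cells viable, and cell lines differ markedly in resting and induced cleaved-PARP levels.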

The assay deals with COLO792. As to the kind of experiment: cleaved PARP positive nuclei fraction relative to DMSO control; melanoma cells; higher = more apoptosis. The following applies: library dose: low library concentration; 72 h.
Regarding `NC1(c2ccc(-c3nc4ccn5c(=O)[nH]nc5c4cc3-c3ccccc3)cc2)CCC1` + Cc1cc([N+](=O)[O-])ccc1NS(=O)(=O)c1cc(Cl)ccc1Cl [FH535] (first compound 0.4 µM, partner dose 1 µM), the “cleaved PARP positive nuclei fraction” value was determined as 184%.
In the case of `NC1(c2ccc(-c3nc4ccn5c(=O)[nH]nc5c4cc3-c3ccccc3)cc2)CCC1` + O=S(=O)(c1ccccc1)N(CC(F)(F)F)c1ccc(C(O)(C(F)(F)F)C(F)(F)F)cc1 [T0901317] (first compound 0.4 µM, partner dose 1.4 µM), the “cleaved PARP positive nuclei fraction” value was found to be 225%.
As to `CS(=O)(=O)c1ccc(C(=O)Nc2ccc(Cl)c(-c3ccccn3)c2)c(Cl)c1` [vismodegib] + Oc1cc(-c2nc(-c3ccccc3)[nH]c2-c2ccncc2)ccc1Cl [L779450] (first compound 1 µM, partner dose 0.2 µM), the “cleaved PARP positive nuclei fraction” value was determined as 85.3%.
The figure for `C[C@]1(O)C[C@@H](c2nc(-c3ccc4ccc(-c5ccccc5)nc4c3)c3c(N)nccn32)C1` + CC(C)CCN1c2nc(Nc3cc(F)c(O)c(F)c3)ncc2N(C)C(=O)C1C [BID1870] (first compound 0.4 µM, partner dose 0.2 µM) is 181%; for `Cn1cnc2c(F)c(Nc3ccc(Br)cc3Cl)c(C(=O)NOCCO)cc21` [selumetinib] + CC(C)CCN1c2nc(Nc3cc(F)c(O)c(F)c3)ncc2N(C)C(=O)C1C [BID1870] (first compound 0.015 µM, partner dose 0.2 µM) it is 231%; for `C[C@]1(O)C[C@@H](c2nc(-c3ccc4ccc(-c5ccccc5)nc4c3)c3c(N)nccn32)C1` + CCN(CC)CCCCNc1ncc2cc(-c3cc(OC)cc(OC)c3)c(NC(=O)NC(C)(C)C)nc2n1 [PD173074] (first compound 0.4 µM, partner dose 0.1 µM) it is 76.6%.
The figure for `CCCCCCCCc1ccc(CCC(N)(CO)CO)cc1` [fingolimod] + Cn1cc(/C=C2\C(=O)Nc3cccnc32)c2ccccc21 [GW441756] (first compound 2 µM, partner dose 0.4 µM) is 157%.
For the compound `CS(=O)(=O)c1ccc(C(=O)Nc2ccc(Cl)c(-c3ccccn3)c2)c(Cl)c1` [vismodegib] + COc1ccc(COc2ccc(Cc3cnc(N)nc3N)cc2OC)cc1 [GW2580] (first compound 1 µM, partner dose 1 µM), the “cleaved PARP positive nuclei fraction” value was 271%.
The figure for `CC(=O)O[C@@]12CO[C@@H]1C[C@H](O)[C@@]1(C)C(=O)[C@H](O)C3=C(C)[C@@H](OC(=O)[C@H](O)[C@@H](NC(=O)OC(C)(C)C)c4ccccc4)C[C@@](O)([C@@H](OC(=O)c4ccccc4)[C@H]21)C3(C)C` [Docetaxel] + c1cc(-c2cnn3cc(-c4ccc(OCCN5CCCCC5)cc4)cnc23)ccn1 [Dorsomorphin] (first compound 0.0001 µM, partner dose 0.4 µM) is 475%.
With `CS(=O)(=O)c1ccc(C(=O)Nc2ccc(Cl)c(-c3ccccn3)c2)c(Cl)c1` [vismodegib] + O=C(Nc1ccccc1)c1cc([N+](=O)[O-])ccc1Cl [GW9662] (first compound 1 µM, partner dose 2 µM) the figure was 31.2%; with `NC(=O)c1ccc(N(C(N)=O)c2c(F)cccc2F)nc1-c1ccc(F)cc1F` + COc1ccc(-c2ccc3c(N4CCOCC4)nc(N4C[C@@H](C)O[C@@H](C)C4)nc3n2)cc1CO [KU0063794] (first compound 0.4 µM, partner dose 0.02 µM), 46.3%.
As for `CN(c1ncccc1CNc1nc(Nc2ccc3c(c2)CC(=O)N3)ncc1C(F)(F)F)S(C)(=O)=O` + Oc1nc(-c2ccc(C(F)(F)F)cc2)nc2c1CSCC2 [XAV939] (first compound 0.08 µM, partner dose 2 µM), the “cleaved PARP positive nuclei fraction” value was 136%.
In the case of `CS(=O)(=O)c1ccc(C(=O)Nc2ccc(Cl)c(-c3ccccn3)c2)c(Cl)c1` [vismodegib] + COC(=O)c1sccc1S(=O)(=O)Nc1ccc(Nc2ccccc2)cc1OC [GSK0660] (first compound 1 µM, partner dose 1 µM), the “cleaved PARP positive nuclei fraction” value worked out at 90%.
In the case of `Cn1sc(=O)n(Cc2ccccc2)c1=O` + O=C(O)C(=O)Nc1sc2c(c1C(=O)O)CCNC2 [TCS401] (first compound 0.4 µM, partner dose 1.66667 µM), the “cleaved PARP positive nuclei fraction” value came to 169%.
With `Cn1cnc2c(F)c(Nc3ccc(Br)cc3Cl)c(C(=O)NOCCO)cc21` [selumetinib] + N#Cc1c(O)c2c(-c3ccc(-c4ccccc4O)cc3)csc2[nH]c1=O [A769662] (first compound 0.015 µM, partner dose 2 µM) the figure was 74.4%.

For the origin of these results see the supplement of paper PMC4604168 (melanoma cell lines).
